Measurements reported in the supplement of paper PMC10849652.
The other results are listed elsewhere or left out.

Protein sequences, listed by entry. Tags and fused reporters are not part of them. Lines headed by an entry give the natural chain unless they say otherwise; changes in a name come on top.
UniProt P23443: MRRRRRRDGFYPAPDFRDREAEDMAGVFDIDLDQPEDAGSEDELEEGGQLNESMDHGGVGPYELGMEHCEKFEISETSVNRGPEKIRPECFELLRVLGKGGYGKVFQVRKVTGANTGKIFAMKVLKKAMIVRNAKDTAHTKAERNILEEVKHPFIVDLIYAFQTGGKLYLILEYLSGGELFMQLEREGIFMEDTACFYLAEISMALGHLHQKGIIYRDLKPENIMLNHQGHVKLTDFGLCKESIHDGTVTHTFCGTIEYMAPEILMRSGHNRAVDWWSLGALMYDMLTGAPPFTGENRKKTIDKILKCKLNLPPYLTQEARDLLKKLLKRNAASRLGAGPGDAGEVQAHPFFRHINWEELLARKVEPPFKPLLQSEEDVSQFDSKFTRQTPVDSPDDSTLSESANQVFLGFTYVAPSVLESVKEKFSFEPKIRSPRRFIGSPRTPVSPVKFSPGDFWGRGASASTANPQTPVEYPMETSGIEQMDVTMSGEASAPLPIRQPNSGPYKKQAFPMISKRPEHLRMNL
UniProt Q92766: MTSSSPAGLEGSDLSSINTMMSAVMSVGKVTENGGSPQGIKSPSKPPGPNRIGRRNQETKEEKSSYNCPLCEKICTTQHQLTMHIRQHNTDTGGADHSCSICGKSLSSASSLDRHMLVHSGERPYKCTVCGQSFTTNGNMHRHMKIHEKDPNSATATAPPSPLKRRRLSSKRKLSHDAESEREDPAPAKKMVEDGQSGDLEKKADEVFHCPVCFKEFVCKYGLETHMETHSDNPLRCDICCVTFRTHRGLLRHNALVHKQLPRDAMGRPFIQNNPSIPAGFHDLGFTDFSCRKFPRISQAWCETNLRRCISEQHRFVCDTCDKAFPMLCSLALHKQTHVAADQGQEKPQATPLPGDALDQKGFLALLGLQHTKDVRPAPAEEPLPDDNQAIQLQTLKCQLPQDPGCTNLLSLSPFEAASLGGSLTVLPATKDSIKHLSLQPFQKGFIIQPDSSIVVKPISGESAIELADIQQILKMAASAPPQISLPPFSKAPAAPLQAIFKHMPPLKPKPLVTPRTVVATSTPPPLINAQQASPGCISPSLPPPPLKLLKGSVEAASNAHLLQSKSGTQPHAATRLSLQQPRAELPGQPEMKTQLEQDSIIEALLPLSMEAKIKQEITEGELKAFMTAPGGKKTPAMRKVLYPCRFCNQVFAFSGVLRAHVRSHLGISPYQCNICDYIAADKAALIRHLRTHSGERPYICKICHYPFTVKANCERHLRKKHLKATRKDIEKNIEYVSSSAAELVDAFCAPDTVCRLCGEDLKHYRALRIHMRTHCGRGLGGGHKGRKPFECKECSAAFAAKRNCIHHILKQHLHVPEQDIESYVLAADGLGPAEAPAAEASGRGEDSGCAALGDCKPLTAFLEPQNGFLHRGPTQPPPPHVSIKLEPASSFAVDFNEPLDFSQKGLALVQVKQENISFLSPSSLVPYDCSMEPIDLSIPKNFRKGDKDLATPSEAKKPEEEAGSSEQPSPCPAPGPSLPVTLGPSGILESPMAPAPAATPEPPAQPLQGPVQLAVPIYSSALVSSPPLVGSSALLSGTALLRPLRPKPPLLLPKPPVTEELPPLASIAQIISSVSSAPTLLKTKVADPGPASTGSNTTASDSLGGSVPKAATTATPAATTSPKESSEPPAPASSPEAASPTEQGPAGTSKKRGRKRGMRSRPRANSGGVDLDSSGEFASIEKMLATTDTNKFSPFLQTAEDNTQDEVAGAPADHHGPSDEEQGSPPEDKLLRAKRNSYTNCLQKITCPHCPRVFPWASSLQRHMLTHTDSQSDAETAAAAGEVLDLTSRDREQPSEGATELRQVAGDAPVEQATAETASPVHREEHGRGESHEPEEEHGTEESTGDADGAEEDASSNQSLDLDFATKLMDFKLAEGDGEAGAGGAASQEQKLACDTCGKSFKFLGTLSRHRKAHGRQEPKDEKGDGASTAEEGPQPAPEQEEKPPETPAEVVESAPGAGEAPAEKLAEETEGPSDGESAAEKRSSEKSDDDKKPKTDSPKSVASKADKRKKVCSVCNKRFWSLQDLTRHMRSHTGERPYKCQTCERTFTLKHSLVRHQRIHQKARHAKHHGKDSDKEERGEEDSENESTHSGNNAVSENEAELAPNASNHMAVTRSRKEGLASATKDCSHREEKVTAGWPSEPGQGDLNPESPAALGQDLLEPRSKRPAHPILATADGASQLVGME
UniProt P62070: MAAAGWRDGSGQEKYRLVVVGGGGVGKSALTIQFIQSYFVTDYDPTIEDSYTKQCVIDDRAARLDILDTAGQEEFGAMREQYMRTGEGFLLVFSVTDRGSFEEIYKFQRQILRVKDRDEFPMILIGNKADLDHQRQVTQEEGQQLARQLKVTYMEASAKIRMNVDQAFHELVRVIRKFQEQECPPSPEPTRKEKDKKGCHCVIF

Key:
Experiment in all cases: log2 fold change, soluble protein after heating vs DMSO (PISA); higher = thermal stabilisation; K562 lysate, 10 uM; active = over 0.2 and 3.5 SD of the protein, either way, in both replicates (recomputed)
[1] = compound: CS(=O)(=O)CCNCc1ccc(-c2ccc3ncnc(Nc4ccc(OCc5cccc(F)c5)c(Cl)c4)c3c2)o1 [lapatinib]
Procedure, shortened: (§1)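 A 30 min treatment with 10 μM compound was applied to crude K562 extract at 1 mg/mL protein in PBS pH 7.4 with 1 mM MgCl2. Heating for 3 min spanned 48°C-58°C, after which aliquots were pooled, adjusted to 0.5% NP-40 at 4°C and spun at 21,000xg for 90 min. TMTpro 16plex LC-MS/MS of the supernatant, with channel sums equalised, gave values recorded as log-two fold change in thermal stability against solvent controls, from duplicates.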

[2] = compound: CS(=O)(=O)N1CCN(Cc2cc3nc(-c4cccc5[nH]ncc45)nc(N4CCOCC4)c3s2)CC1 [pictilisib]
Procedure, shortened: as §1

[3] = compound: C[C@@H](Oc1cc(-c2cnn(C3CCNCC3)c2)cnc1N)c1c(Cl)ccc(F)c1Cl [crizotinib]
Procedure, shortened: as §1

[4] = compound: C[C@H](C1=CC=C(C=C1)C(=O)NC2=C3C=CNC3=NC=C2)N
Procedure, shortened: as §1

[5] = compound: C[C@H](Nc1ncnc2nc[nH]c12)c1cc2cccc(Cl)c2c(=O)n1-c1ccccc1 [duvelisib]
Procedure, shortened: as §1

[6] = compound: Cc1cc(Nc2cc(CN3CCOCC3)c3nc(C)c(Cc4ccc(Cl)cc4F)n3n2)n[nH]1 [gandotinib]
Procedure, shortened: as §1

[7] = compound: Cc1cc(Nc2cc(N3CCN(C)CC3)nc(Sc3ccc(NC(=O)C4CC4)cc3)n2)n[nH]1 [tozasertib]
Procedure, shortened: as §1

[8] = compound: Cc1ccc(-n2nc(C(C)(C)C)cc2NC(=O)Nc2ccc(OCCN3CCOCC3)c3ccccc23)cc1 [doramapimod]
Procedure, shortened: as §1

[9] = compound: Cc1ccc(NC(=O)c2ccc(CN3CC[C@H](N(C)C)C3)c(C(F)(F)F)c2)cc1Nc1nccc(-c2cncnc2)n1 [bafetinib]
Procedure, shortened: as §1

[10] = compound: Cc1cccc(CC(=O)N2CCc3c2ccc(-c2cn(C)c4ncnc(N)c24)c3F)n1
Procedure, shortened: as §1

[11] = compound: Cc1cn(-c2cc(NC(=O)c3ccc(C)c(Nc4nccc(-c5cccnc5)n4)c3)cc(C(F)(F)F)c2)cn1 [nilotinib]
Procedure, shortened: as §1

[12] = compound: Cc1nc(Nc2n[nH]c3c2CN(C(=O)N[C@H](CN(C)C)c2ccccc2)C3(C)C)c2sccc2n1
Procedure, shortened: as §1

[13] = compound: Cc1nc(Nc2ncc(C(=O)Nc3c(C)cccc3Cl)s2)cc(N2CCN(CCO)CC2)n1 [dasatinib]
Procedure, shortened: as §1

[14] = compound: Cc1ncc(-c2ccnc(Nc3ccc(S(C)(=O)=O)cc3)n2)n1C(C)C
Procedure, shortened: as §1

[15] = compound: Cn1cc(-c2ccc3c(c2)CCN3C(=O)Cc2cccc(C(F)(F)F)c2)c2c(N)ncnc21
Procedure, shortened: as §1

[16] = compound: Cn1cc(CNCC2CCN(c3ncc(C(=O)NO)cn3)CC2)c2ccccc21 [quisinostat]
Procedure, shortened: as §1

[17] = compound: Cn1cncc1[C@@](N)(c1ccc(Cl)cc1)c1ccc2c(c1)c(-c1cccc(Cl)c1)cc(=O)n2C [tipifarnib]
Procedure, shortened: as §1

[18] = compound: NC(=O)Nc1cc(-c2cccc(F)c2)sc1C(=O)N[C@H]1CCCNC1
Procedure, shortened: as §1

[19] = compound: NC(=O)c1cnc(N[C@@H]2CCCC[C@@H]2N)nc1Nc1cccc(-n2nccn2)c1
Procedure, shortened: as §1

[20] = compound: NC1(c2ccc(-c3nc4ccn5c(=O)[nH]nc5c4cc3-c3ccccc3)cc2)CCC1
Procedure, shortened: as §1

Target | log2 fold change [1] | log2 fold change [2] | log2 fold change [3] | log2 fold change [4] | log2 fold change [5] | log2 fold change [6] | log2 fold change [7] | log2 fold change [8] | log2 fold change [9] | log2 fold change [10] | log2 fold change [11] | log2 fold change [12] | log2 fold change [13] | log2 fold change [14] | log2 fold change [15] | log2 fold change [16] | log2 fold change [17] | log2 fold change [18] | log2 fold change [19] | log2 fold change [20]
RPS6KB1 (UniProt P23443) | inactive: 0.009 | inactive: 0.075 | inactive: 0.16 | inactive: -0.104 | inactive: 0.001 | inactive: 0.051 | inactive: 0.022 | inactive: -0.05 | inactive: 0.006 | inactive: 0.177 | inactive: -0.034 | inactive: 0.077 | inactive: -0.003 | inactive: 0.001 | inactive: 0.003 | inactive: -0.049 | inactive: -0.008 | inactive: 0.035 | inactive: -0.014 | active: 0.405
RREB1 isoform 2 (UniProt Q92766) | inactive: 0.184 | inactive: -0.041 | inactive: 0.02 | inactive: 0.05 | inactive: -0.142 | inactive: -0.177 | inactive: 0.03 | inactive: 0.027 | inactive: 0.068 | inactive: -0.023 | inactive: -0.207 | inactive: 0.076 | inactive: -0.149 | inactive: 0.102 | inactive: -0.059 | inactive: -0.135 | inactive: 0.011 | inactive: -0.026 | inactive: -0.054 | inactive: 0.055
RPS13 (UniProt P62277) | inactive: -0.01 | inactive: 0.012 | inactive: 0 | inactive: 0.123 | inactive: 0.011 | inactive: -0.083 | inactive: 0.061 | inactive: -0.024 | inactive: 0.017 | inactive: -0.086 | inactive: -0.021 | inactive: -0.024 | inactive: 0.004 | inactive: -0.028 | inactive: 0.046 | inactive: 0.053 | inactive: 0.022 | inactive: 0.007 | inactive: 0.005 | inactive: 0.05
RPL37 (UniProt P61927) | inactive: 0.017 | inactive: 0 | inactive: 0.122 | inactive: 0.017 | inactive: 0 | inactive: -0.016 | inactive: -0.048 | inactive: -0.162 | inactive: -0.037 | inactive: 0.024 | inactive: -0.004 | inactive: 0.014 | inactive: -0.03 | inactive: 0.044 | inactive: -0.024 | inactive: 0.15 | inactive: 0.011 | inactive: -0.063 | inactive: -0.005 | inactive: -0.019
RRAS2 (UniProt P62070) | inactive: -0.076 | inactive: -0.014 | inactive: 0.029 | inactive: 0.067 | inactive: 0.039 | inactive: 0.05 | inactive: -0.012 | inactive: 0.025 | inactive: -0.045 | inactive: -0.021 | inactive: -0.063 | inactive: 0.093 | inactive: 0.004 | inactive: 0.082 | inactive: -0.055 | inactive: 0.001 | inactive: 0.009 | inactive: 0.013 | inactive: 0.02 | inactive: -0.048
RPS23 (UniProt P62266) | inactive: -0.009 | inactive: 0 | inactive: 0.007 | inactive: 0.097 | inactive: 0.018 | inactive: -0.035 | inactive: -0.03 | inactive: -0.011 | inactive: -0.006 | inactive: -0.041 | inactive: 0.005 | inactive: -0.027 | inactive: 0.013 | inactive: -0.015 | inactive: -0.02 | inactive: 0.017 | inactive: 0.021 | inactive: 0.006 | inactive: -0.018 | inactive: -0.006
RPS25 (UniProt P62851) | inactive: -0.043 | inactive: 0 | inactive: -0.007 | inactive: -0.027 | inactive: -0.013 | inactive: 0.019 | inactive: 0.004 | inactive: 0.003 | inactive: 0.017 | inactive: 0.004 | inactive: 0.016 | inactive: -0.045 | inactive: 0.02 | inactive: -0.021 | inactive: -0.009 | inactive: 0.042 | inactive: 0.059 | inactive: -0.034 | inactive: 0.017 | inactive: 0.023
RPS5 (UniProt P46782) | inactive: -0.009 | inactive: -0.003 | inactive: 0.005 | inactive: 0.059 | inactive: -0.02 | inactive: -0.02 | inactive: -0.064 | inactive: -0.037 | inactive: 0.022 | inactive: -0.048 | inactive: 0.01 | inactive: 0.002 | inactive: -0.03 | inactive: -0.002 | inactive: -0.012 | inactive: 0.067 | inactive: 0.038 | inactive: 0.013 | inactive: -0.049 | inactive: 0.009
